# Library screening results

From ChEMBL document CHEMBL3988442, “University of Dundee, Small-Polar-MMV Screening Library” (2021).

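Whole-cell assay for inhibitors of Mycobacterium tuberculosis growth, labelled Cornell in the record; the read-out is not stated. The concentration is filed as 10 mM, unlikely as a test dose, so the dose is not known. Higher means stronger inhibition (inferred from two other growth screens of the library). Of about 53,000 compounds tested this way, about 900 (1.7%) reached 50% or more in at least one test.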

Results are given as percent effect.
The record does not define 0% and 100%; most values in the screen are far below 50% and negative numbers occur (in some assays of this library far below -100).
Compounds were drawn at random from those tested, without regard to their results.

For COc1cc(CNC2CCc3nc(C(C)C)nn3C2)cc2c1OCO2 (stereo not given) the result was 15.48%.
For c1ccc(-c2nc(CN3CCCC3Cn3cncn3)cs2)cc1 (stereo not given) the result was 32.25%.
For CN(C(=O)NC1CC1)C1CCN(c2ccc(Cl)cc2)CC1 the result was 17.37%.
For Cc1nc2c(c(=O)n1C)CN(C(=O)C1CCCN(C(=O)N(C)C)C1)C2 (stereo not given) the result was -5.362%.
For CC(=O)CSc1nnc2n1N=CN(c1cccc(Cl)c1)C2 the result was 22%.
For Cc1nc(CN2CCCN(CCCc3ccccc3)CC2)no1 the result was 26.3%.
For O=C(NCCn1cccc1)C1CCCN(C2CCCC2)C1 (stereo not given) the result was 5.786%.
For O=C1CCC2(CCN(Cc3cc(F)cc(F)c3)CC2)CN1CCO the result was 0.3512%.
For C=C(C)CN(CC)Cc1nc(C(C)(C)C)no1 the result was -22.87%.
For COCCC(=O)Nc1ccnn1-c1ccccc1 the result was -2.555%.
For O=C(CS(=O)(=O)Cc1ccccc1)NCc1ccccc1F the result was 19.91%.
For Cc1cc(-c2cc(N)c(=O)n(CC(=O)NC3CCCCC3)n2)c(C)o1 the result was 13.71%.
For Cc1nn(C)c(C)c1S(=O)(=O)NCC(C)(O)c1ccc2c(c1)OCO2 (stereo not given) the result was 0.8242%.
For Cc1ccc(-c2cc(CN3CCCC(Cn4cncn4)C3)on2)cc1 (stereo not given) the result was 8.833%.
For O=C1CC(c2ccc(F)cc2)c2cnn(C3CCCC3)c2N1 (stereo not given) the result was 27.47%.
For Cc1oc(-c2ccc(F)cc2F)nc1CN1C[C@@H](C)O[C@@H](C)C1 the result was -0.1427%.
For [H][C@@]12CCN(C(=O)c3ccsc3)C[C@@]1([H])O[C@H](c1noc(C)n1)C2 the result was -23.05%.
For O=C(O)C(F)(F)F.O=C(O)C(F)(F)F.[H][C@@]12CCN(C(=O)c3cnccn3)C[C@]1([H])[C@@H](CN1CCN(C)CC1)OC2 the result was -23.57%.
For O[C@@H]1C[C@@H](c2nc(-c3ccccc3)no2)N(Cc2ccncc2)C1 the result was 17.64%.
For Cc1nc(-c2cc(C(=O)N3CCN(C)CC3)c3ccccn23)cn1C the result was 1.2%.
For COCCOc1ncccc1C(=O)N1CCCC1Cn1cc(C)cn1 (stereo not given) the result was -27.78%.
For Cc1cnc(CN2CCN(C(C)c3nc(C(C)C)no3)CC2)cn1 (stereo not given) the result was -40.08%.
For COc1cccc(CC(=O)N2CCc3nc(C(N)=O)sc3CC2)c1 the result was -10.87%.
For CC(C)(C)c1ncc(CNCC2CN(C3CC3)CCO2)s1 (stereo not given) the result was 20.32%.
For CCn1cc(CN2CCCN(C(=O)CCc3ccncc3)CC2)cn1 the result was -21.4%.
For COc1ccccc1Oc1ncccc1CNC(=O)[C@@H](C)NC(C)=O the result was -1.636%.
For CCC1CCCCCN1C(=O)c1ccc(N2CCC(O)CC2)cc1 (stereo not given) the result was 11.64%.
For CN1CCc2nc(C3CCCN(S(=O)(=O)N4CCCC4)C3)ncc2C1 (stereo not given) the result was 34.54%.
For Cc1nc(CSCCC(=O)NCCNC(=O)OC(C)(C)C)cs1 the result was -27.69%.
For Cc1ccc(N2CCCC(NCc3sccc3C)C2)nn1 (stereo not given) the result was -31.49%.
For Cc1cc(N(C)C)nc(C2(C)CCNCC2)n1 the result was -16.35%.
For COc1ccc(N(C)Cc2nc3c(cnn3C)c(=O)[nH]2)cc1OC the result was 38.15%.
For Cc1ncnc(NCc2cc3n(n2)CCCN(S(C)(=O)=O)C3)c1C the result was -41.83%.
For CC(C)c1nc(N2CC(N3CCCCC3C)C2)c2cnn(C)c2n1 (stereo not given) the result was 7.367%.
For Cc1cc(C)c2nc(CN(C)C(C)c3ccncn3)cc(O)c2c1 (stereo not given) the result was -14.25%.

For reference, 4 entries once more:

| compound | percent effect |
|---|---|
| `Cc1nc(CN2CCCN(CCCc3ccccc3)CC2)no1` | 26.3 |
| `COCCC(=O)Nc1ccnn1-c1ccccc1` | -2.555 |
| `[H][C@@]12CCN(C(=O)c3ccsc3)C[C@@]1([H])O[C@H](c1noc(C)n1)C2` | -23.05 |
| `O=C(NCCn1cccc1)C1CCCN(C2CCCC2)C1` (stereo not given) | 5.786 |